Reference: patent US20250059499A1 (THE UNIVERSITY OF BRITISH COLUMBIA, priority 2021, published 2025)

Assay: peptide made by a vendor
Conditions: whole synthesis, RP-HPLC, peak at 25.829 min

Ac-GQ(trt)Q(trt)Q(trt)LGGGGG-OH
purity (crude or final not stated): 83.28%
